Test: general procedure: solution-phase peptide synthesis; N-hydroxysuccinimide active esters (DCCI); pentafluorophenyl and p-nitrophenyl e

Question: With “N-t-Butyloxycarbonyl-L-tryptophyl-L-2-methyl-3-(2-naphthyl)alanyl-L-aspartyl-L-phenylalaninamide” as the substance, how does the step yield (late stage modification step) read?
Answer: Its step yield is 88%.

Question: With “N-t-Butyloxycarbonyl-L-tryptophyl-L-2-methyl-3-(2-naphthyl)alanyl-β-O-benzyl-L-aspartyl-L-phenylalaninamide” as the substance, how does the step yield (coupling step) read?
Answer: Its step yield is 77%.

Question: Which step yield (late stage modification step, run 1) does the source give for “N-t-Butyloxycarbonyl-L-tryptophyl-L-3-(2-naphthyl)alanyl-L-aspartyl-L-phenylalaninamide” here?
Answer: Its step yield is 90%.

Question: And the step yield (late stage modification step, run 2)?
Answer: The step yield was 64%.

Question: Which step yield (coupling step, run 1) does the source give for “N-t-Butyloxycarbonyl-L-tryptophyl-L-3-(2-naphthyl)alanyl-β-O-benzyl-L-aspartyl-L-phenylalaninamide” here?
Answer: Its step yield is 84%.

Question: And the step yield (coupling step, run 2)?
Answer: The step yield was 65%.

Reference: patent US5486597A (James Black Foundation Limited, priority 1990, dated 1996)
